From US20230286995A1, “METABOLICALLY STABLE PYRIMIDINYL DIHYDROQUINOXALINONES AS TUBULIN POLYMERIZATION INHIBITORS” (UNIVERSITY OF TENNESSEE RESEARCH FOUNDATION, priority 2022, published 2023) come the findings set out here.

The structures appear in SMILES notation.

For assay [1], the system named is A549. Put plainly: cells. Conditions: Homo sapiens, A549, read-out: IC50 ± SEM (nM) A549.
The test system of assay [2] is MDA-MB-231. Put plainly: Cytotoxicity assay (MTS, 72 h). Format: cell-based. Conditions: Homo sapiens, MDA-MB-231, read-out: IC50 ± SEM (nM) MDA-MB-231.
Assay [3] relates to MDA-MB-231/VxR. Put plainly: Cytotoxicity assay (MTS, 72 h). The format is cell-based. Conditions: Homo sapiens, MDA-MB-231, read-out: IC50 ± SEM (nM) MDA-MB-231/VXR.
For assay [4], the system named is MDA-MB-231/TxR. Put plainly: Cytotoxicity assay (MTS, 72 h). The format is cell-based. Conditions: Homo sapiens, read-out: IC50 ± SEM (nM) MDA-MB-231/TxR.
Assay [5] has as its system A375/TxR. Put plainly: Cytotoxicity assay (MTS, 72 h). The format is cell-based. Conditions: Homo sapiens, Table 2, paclitaxel-resistant, read-out: IC50 ± SEM (nM) A375/TxR.

As to `COc1cc2c(c(OC)c1OC)-c1ccc(OC)c(=O)cc1[C@@H](NC(C)=O)CC2` [Colchicine, reference compound], the IC50 in assay [1] was found to be 77.6 ± 2.1 nM; in assay [2] it was 18.9 ± 3.2 nM; in assay [3], 24 ± 4.4 nM; in assay [4], 15.8 ± 2.3 nM; in assay [5], 23.6 ± 3.2 nM.
